Cell number change and AC50 data for 34 molecules are collected here from PubChem BioAssay AID2685 (National Center for Advancing Translational Sciences (NCATS), 2010).

The other results are listed elsewhere or left out. These are further read-outs of the screen, such as a control signal, another cell line or another target. No call is given for them. The list favours compounds with an active or inconclusive main result. The note in brackets gives the kind of curve behind each potency; many fits are weak.

The assay is described as follows: qHTS Assay for Lipid Storage Modulators in Drosophila S3 Cells.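 On Cell number change: cells counted by Cell Tracker Red CMTPX staining in the red channel.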 As to conditions: BODIPY lipid droplet fluorescence, 18-24 h; for cell number change: measured here: cell count max response, cells fed with added oleic acid. A digest of the protocol:
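Drosophila S3 cells loaded with oleic acid (400 uM, as added) and compounds at several concentrations; lipid droplets imaged by 488-nm laser-scanning cytometry, 500–530 nm intensity and object ratio to cell channel. Percent activity normalized to 20 uM Triacsin C.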
(qHTS replaces the single test concentration by a dilution series.)

Where [1] appears, read: measured here: lipid fluorescence (Fed channel) AC50, cells fed with added oleic acid.
Where [2] appears, read: measured here: cell number channel AC50, cells fed with added oleic acid.

The AC50 is the midpoint of the concentration-response curve, whichever way the signal moves. Read a low AC50 as activity at low concentration. As to `COc1ccc(C(=O)N2CCCC(Nc3ccc(F)cc3)C2)cc1F` (stereo unspecified), the cell number change worked out at 24.3%. In addition, the half-maximal activity concentration (AC50) under setting [1] is 29.1 µM [rising, single point].
With `COC(=O)C(Cc1ccccc1)NC(=O)C12CC3CC(CC(C3)C1)C2` (stereo unspecified), the cell number change was -47.1%. Besides, the concentration at half-maximal activity (AC50) under setting [2] is 9.2 µM [falling, partial curve]. Further, under setting [1], the AC50 was 7.31 µM [falling, partial curve].
`C=C(C)COc1ccc(-c2ncncc2-c2ccc(Br)cc2)c(O)c1`: the cell number change was found to be 7.21%. The half-maximal activity concentration (AC50) under setting [1] is 29.1 µM [rising, single point].
As to `CCC(C)(C)NC(=O)C(c1ccc(OC)cc1)N(C(=O)CCC(=O)Nc1cc(C)on1)c1ccccc1OC` (stereo unspecified), the cell number change is 22.9%. Also, the half-maximal activity concentration (AC50) under setting [1] was 0.731 µM [falling, partial curve].
In the case of `CCn1c(SCC(=O)N/N=C/c2cc(OC)c(OC)c(OC)c2)nc2ccccc21`, the cell number change was 29.7%.
For the molecule `COc1cccc(CN2CC(C(=O)NCCCCc3ccccn3)CCC2=O)c1` (stereo unspecified), the cell number change was found to be 10.1%. Besides, under setting [1], the AC50 was 29.1 µM [rising, single point].
Regarding `Cc1sc(N/N=C/c2ccco2)nc1-c1ccccc1`, the cell number change was 37%. The AC50 under setting [2] is 7.31 µM [rising, partial curve]. In addition, under setting [1], the concentration at half-maximal activity (AC50) is 9.2 µM [rising, partial curve].
As for `O=C(CCCc1ccccc1)N1CCN(C2CCCCC2)CC1`, the cell number change is 20.5%. For the same molecule, the AC50 under setting [2] is 0.731 µM [rising, full curve, poor fit]. Besides, the concentration at half-maximal activity (AC50) under setting [1] is 0.58 µM [rising, single point].
As to `O=C(NCc1ccco1)c1cnn2c(C(F)(F)F)cc(-c3ccco3)nc12`, the AC50 under setting [2] is 0.164 µM [rising, partial curve, poor fit] and the AC50 under setting [1] was 2.91 µM [rising, partial curve, poor fit].
Take `CSc1ccc(S(=O)(=O)N2CCC(C(=O)Nc3ccc(NC(C)=O)cc3)CC2)cc1`: the cell number change was determined as 5.86%. Moreover, the AC50 under setting [1] is 29.1 µM [rising, single point].
With `COc1ccc(-c2nn(-c3ccccc3)cc2C(=O)NCCCn2ccnc2)cc1`, the cell number change was found to be 10.3%. The AC50 under setting [1] was 1.3 µM [falling, single point].
Turning to `CCOC(=O)c1c(NC(=O)CCl)sc(C(=O)N(CC)CC)c1C`, the cell number change was 12.8%. Further, the AC50 under setting [1] was 0.731 µM [falling, full curve, poor fit].
`COCc1cc(C)n(CC(=O)Nc2ccc(N3CCOCC3)cc2)c(=O)c1C#N`: the cell number change was -37.5%. Moreover, the AC50 under setting [2] is 14.6 µM [falling, partial curve, poor fit]. Moreover, the AC50 under setting [1] was 23.1 µM [falling, partial curve].
In the case of `CCOC(=O)C1(Cc2ccccc2)CCN(Cc2ccc(C3CCCCO3)s2)CC1` (stereo unspecified), the cell number change amounted to 32.6%. The half-maximal activity concentration (AC50) under setting [2] is 29.1 µM [rising, single point].
For `Nc1ccccc1Sc1c[nH]c2ccccc12`, the cell number change is -14.7%. Besides, the half-maximal activity concentration (AC50) under setting [1] is 5.17 µM [rising, partial curve].
`Cc1ccc(F)cc1NC(=O)COC(=O)C1CCN(c2ccc(C(F)(F)F)cn2)CC1`: the concentration at half-maximal activity (AC50) by setting is: under setting [2], 4.11 µM [rising, partial curve, poor fit]; under setting [1], 0.13 µM [rising, full curve, poor fit].
Consider `CC(=O)CCc1ccc(OCCCOc2cccc3cccnc23)cc1`, for which the cell number change is -38.6%. Also, the AC50 under setting [2] was 16.4 µM [falling, single point]. For the same molecule, the half-maximal activity concentration (AC50) under setting [1] was 18.4 µM [falling, single point].
On to `COc1ccc(CNC(=O)CN2C(=O)NC3(CCCc4sccc43)C2=O)cc1OC` (stereo unspecified), for which the cell number change came out at 4.64%. The AC50 under setting [1] is 0.82 µM [falling, single point].
In the case of `Cn1cc(/C=C(\C(=O)O)C(C(=O)O)=C2CCCCC2)c2ccccc21`, the cell number change was -35.3%. Moreover, under setting [2], the concentration at half-maximal activity (AC50) is 29.1 µM [falling, single point]. Also, the AC50 under setting [1] was 25.9 µM [falling, single point].
In the case of `CCOc1ccc(OCCCCn2ccnc2)cc1`, the cell number change was -16.7%. For the same molecule, the AC50 under setting [2] is 0.00461 µM [falling, full curve, poor fit]. Besides, under setting [1], the concentration at half-maximal activity (AC50) is 25.9 µM [rising, partial curve, poor fit].
Take `S=C(NCCN1CCOCC1)Nc1ccc(Cl)cc1`: the cell number change was -3.77%. Further, under setting [1], the half-maximal activity concentration (AC50) was 0.517 µM [rising, partial curve, poor fit].
As to `CCCCN(CC)S(=O)(=O)c1ccc(C(=O)N=c2sc3cc(NC(C)=O)ccc3n2C)cc1`, the cell number change is -15.9%. The half-maximal activity concentration (AC50) under setting [2] is 6.51 µM [falling, single point]. Besides, under setting [1], the concentration at half-maximal activity (AC50) is 6.51 µM [falling, single point].
Consider `COC(=O)c1cccc(NC(=O)Cc2nc(-c3ccccc3)sc2-c2ccc(C)cc2)c1`, for which the cell number change came out at 3.13%. Moreover, the half-maximal activity concentration (AC50) under setting [1] is 0.651 µM [rising, single point].
Take `Cc1ccc(S(=O)(=O)N2CCN(C(=O)N3CCCC3)CC2)cc1`: the cell number change is -22.4%.
As to `COc1cccc2cc(C(=O)NCCC3=CCCCC3)c(=O)oc12`, the cell number change turned out to be 62.3%. Further, the AC50 under setting [2] is 14.6 µM [rising, partial curve].
Take `CCOC(=O)C1C(c2cccc(F)c2)NC(=S)NC1(O)C(F)(F)F` (stereo unspecified): the cell number change was 86.6%. Moreover, under setting [2], the half-maximal activity concentration (AC50) is 1.3 µM [rising, full curve]. Further, the half-maximal activity concentration (AC50) under setting [1] was 6.51 µM [rising, partial curve].
For `CC(C)c1ccc(NC(=O)C2CCN(c3ncnc4c3nc3n4CCCCC3)CC2)cc1`, the cell number change was -17.6%.
In the case of `O=C(O)c1cc(-c2ccc(Cl)cc2)n(-c2ccc(F)cc2)n1`, the cell number change was -33.4%. Under setting [2], the concentration at half-maximal activity (AC50) was 29.1 µM [falling, single point]. The AC50 under setting [1] was 29.1 µM [falling, single point].
On to `O=C(O)/C=C/C(=O)Nc1ccc(OC(F)(F)F)cc1Br`, for which the cell number change is -48.2%. Also, the half-maximal activity concentration (AC50) under setting [2] is 18.4 µM [falling, single point]. The AC50 under setting [1] was 29.1 µM [falling, single point].
On to `CC(Sc1nnc(-c2ccccc2F)n1C1CC1)C(=O)NCc1ccco1` (stereo unspecified), for which the cell number change is -13.2%. Besides, the AC50 under setting [1] is 11.6 µM [falling, partial curve].
Turning to `Cc1cc(C)nc(NS(=O)(=O)c2ccc(N/C=C/C(=O)c3ccc(Cl)c(Cl)c3)cc2)n1`, the cell number change was -21.9%.
As to `O=C(O)CCCC(=O)Nc1cccc(-c2nc3ccccc3[nH]2)c1`, the cell number change is -25.5%. Besides, the AC50 under setting [1] was 2.31 µM [falling, full curve].
With `CC(=O)C(C)Sc1nnc(-c2ccccc2F)n1C1CC1` (stereo unspecified), the cell number change was -38.1%. Moreover, under setting [2], the AC50 was 9.2 µM [falling, partial curve]. Also, the half-maximal activity concentration (AC50) under setting [1] was 6.51 µM [rising, single point].
Take `CCOc1ncccc1C(=O)OCC(=O)Nc1cccc(S(N)(=O)=O)c1`: the cell number change was -0.541%. For the same molecule, under setting [1], the concentration at half-maximal activity (AC50) is 0.092 µM [rising, full curve, poor fit].
